These are yes or no findings as the source states them, for the method shown. For part of these data: In cells and extracts the contact can be indirect. Some entries that bind do so weakly or less than the wild type. For part of these data: Sequences can lack the tags named with a protein.
B1: chicken MyD88, Flag-tagged (Flag-MyD88), expressed in HD11 cells (protein, UniProt A5HNF6 1-299)
chain: MATVPVGAGSAPGPEPADLHSVPMVALNYGVRRRLGLYLNPRAATAADWTALAEKLGHDYLEIRRLEALPDPTAALLEEWQSRCPGGATVGQLLELLRQLGRHDVLLELGGSVEEDCKKYLRRKQQEAEQPLQVPAVDSSVPKTSELMGITTRDDPYGHGTEMFDAFICYCQKDLQFVQEMIRELEQTEFKLKLCVFDRDVLPGTCVWSISGELIERRCRRMVVVISDDYLESDECDFQTKFALSLSPGARLKRLIPVKCKTMKNEFPSILRFITICDYTNPCTKKWFWTRLAKSLLLP
B2: endogenous MyD88 of HD11 chicken macrophage cells (protein, UniProt A5HNF6 1-299)
chain: B1 chain

Tests used:
[1] = biological target: chicken MyD88, Flag-tagged (Flag-MyD88), expressed in HD11 cells (chicken) (UniProt A5HNF6); assay: co-IP; HD11 cells co-transfected with Flag-MyD88, HA-MyD88 (1.5 ug each) and increasing doses of Myc-VP2 (0, 0.7, 1.5 ug) for 24 h; immunoprecipitated by the Flag tag, blotted for HA, Flag and Myc tags
[2] = biological target: endogenous MyD88 of HD11 chicken macrophage cells (chicken (endogenous in HD11)) (UniProt A5HNF6); assay: co-IP; HD11 cells infected with vvIBDV (1x10^10 copies/1x10^6 cells) for 24 h; lysates immunoprecipitated and blotted with anti-MyD88 antibody
[3] = biological target: endogenous MyD88 of HD11 chicken macrophage cells (chicken (endogenous in HD11)) (UniProt A5HNF6); assay: native gel or EMSA; HD11 lysates (native lysis buffer) after HA-VP2 transfection, vvIBDV or HT infection or LPS; native PAGE and immunoblot with anti-MyD88

Row | Binder | binding [1] | binding [2] | binding [3]
1 | B1 | binds |  | 
2 | B2 |  | binds | binds

— article PMC11957393
